These are yes or no findings as the source states them, for the method shown. Some results given as binding are weak or reduced against the parent protein; the word gives no strength.
Assays:
[1] = target: recombinant soluble extracellular domain (ECD) of PD-1 (R&D Systems) (UniProt Q15116); assay: ELISA, PD-1 ECD coated on the plate, antibody titrated from about 0.003 to about 13 nM, OD 450 nm
[2] = target: recombinant soluble extracellular domain (ECD) of PD-1 (R&D Systems) (UniProt Q15116); assay: ELISA, ECD coated on the plate (figure legend)
[3] = target: recombinant soluble extracellular domain (ECD) of PD-1 (R&D Systems) (UniProt Q15116); assay: ELISA, ECD coated on the plate, range of antibody concentrations

By UniProt entry, the sequences of proteins in these tests, tags left out. Residues count along the entry.
UniProt Q15116, residues 25-170: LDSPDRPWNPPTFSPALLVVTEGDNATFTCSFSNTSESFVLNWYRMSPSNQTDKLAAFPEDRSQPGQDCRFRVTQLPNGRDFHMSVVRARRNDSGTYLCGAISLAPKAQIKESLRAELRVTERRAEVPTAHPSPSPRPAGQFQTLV

Measured: binding

B1: 100246_A10VH1_100247_A10VK3 (antibody, V domains shown)
VH: EVQLQESGPGLVKPSQSLSLTCTVTGYSITSDYAWNWIRQFPGNKLEWMGYITYSGSPTYNPSLKSQFSITRDTSKNQFFLQLNSLTTEDTATYYCARGLGGHYFDYWGQGTTLTVSS
VL: DIVLTQSPDTLSVTPGDRVSLSCRASQSISDYLHWYQQKSHESPRLLIKYASQSISGIPSRFSGSGSGSDFTLSINSVEPEDVGVYYCQNGHSYPYTFGGGTKLELK
notes: Mouse variable regions; cloned into pFUSE-CHIg-mG1 (murine IgG1 Fc), expressed in HEK293
binds: all assays above

B2: 100388_D4VH3_100389_D4VK5 (antibody, V domains shown)
VH: EVQLQESGAELVRPGASVTLSCKASGYTFTDYEMHWVKQTPVHGLEWIGVIDPGTGGTAYNQKFKVKALLTADKSSNTAYMELRSLTSEDSAVYYCTSEKFGSNYYFDYWGQGTTLTVSS
VL: DIVITQTPLSLPVSLGDQASISCRSSQTIVHSDGNTYLEWYLQKPGQSPKLLIYKVSNRFSGVPDRFSGSGSGTDFTLKISRVEAEDLGVYYCFQGSHVPLTFGAGTKLEIK
notes: as for B1
binds: all assays above

B3: 100413_E1VH9_100414_E1VK5 (antibody, V domains shown)
VH: EVQLQESGPSLVQPSQSLSITCTVSGFSLTSYGVHWVRQSPGKGLEWLGVIWRGGNTDYNAAFMSRLSITKDNSKSQVFFKMNSLQADDTAIYYCAASMIGGYWGQGTTLTVSS
VL: DIVLTQTPLSLPVSLGDQASISCRSSQSIVHSNGNTYLEWYLQKPGQSPKLLIYKVSNRFSGVPDRFSGSGSGTNFTLKISRVEAEDLGVYYCFQGSHVPLTFGAGTKLELK
notes: as for B1
binds: all assays above

B4: 100244_C8VH3_100245_C8VK5 (antibody, V domains shown)
VH: EVQLQESGPELVRPGASVKMSCKASGYTFTSYWMHWVKQRPGQGLEWIGMIDPSNSETSLNQKFKDKATLNVDKSTNTAYMQLSSLTSEDSAVYYCARSRGNYAYEMDYWGQGTSVTVSS
VL: DIVITQTTAIMSASPGEKVTLTCSASSSVSSNYLYWYQQRPGSSPKLWIYSTSNLASGVPARFSGSGSGTSYSLTISSMEAEDAASYFCHQWSSYPPTFGSGTKLEIK
notes: as for B1
binds: all assays above

From patent publication US20160251436A1 (PD 1 ACQUISITION GROUP, published 2016)
